These results are taken from paper PMC3128601.

This test concerns the target T1, SGIP1 (endogenous, mouse cerebellum) (mouse (endogenous in cerebellum)) (UniProt Q8VD37).
T1 sequence: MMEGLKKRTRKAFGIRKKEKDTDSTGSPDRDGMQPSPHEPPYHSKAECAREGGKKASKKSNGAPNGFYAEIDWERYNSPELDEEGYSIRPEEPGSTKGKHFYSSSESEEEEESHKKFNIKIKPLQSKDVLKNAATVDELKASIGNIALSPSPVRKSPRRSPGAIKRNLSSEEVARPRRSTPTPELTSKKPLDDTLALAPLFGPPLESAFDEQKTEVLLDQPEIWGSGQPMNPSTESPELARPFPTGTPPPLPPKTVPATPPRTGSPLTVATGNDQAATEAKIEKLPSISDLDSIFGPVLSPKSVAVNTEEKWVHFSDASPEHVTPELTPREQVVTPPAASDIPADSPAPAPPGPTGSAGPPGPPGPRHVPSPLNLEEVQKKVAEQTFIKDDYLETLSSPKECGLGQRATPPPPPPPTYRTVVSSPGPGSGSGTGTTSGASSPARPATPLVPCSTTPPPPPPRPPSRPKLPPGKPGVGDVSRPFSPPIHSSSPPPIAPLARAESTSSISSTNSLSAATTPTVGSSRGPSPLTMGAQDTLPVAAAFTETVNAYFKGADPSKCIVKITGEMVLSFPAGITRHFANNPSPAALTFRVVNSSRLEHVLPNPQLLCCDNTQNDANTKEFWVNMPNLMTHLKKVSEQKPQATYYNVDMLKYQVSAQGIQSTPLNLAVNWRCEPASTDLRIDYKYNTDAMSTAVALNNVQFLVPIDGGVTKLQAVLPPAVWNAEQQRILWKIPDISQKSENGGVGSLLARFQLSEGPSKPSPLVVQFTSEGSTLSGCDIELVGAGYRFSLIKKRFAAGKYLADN
The test can be described thus: co-IP; wild-type mouse cerebellum homogenate in RIPA buffer; immunoprecipitation with anti-SGIP1 antibodies (anti-His-tag antibodies as negative control), Western blot with anti-calnexin. A general note: Immunoblotting shows a protein as a band on a membrane.

Results are given in words; binding and its absence hold for the method and conditions named. Binding seen in cells or lysates may run through a third protein. Some results given as binding are weak or reduced against the parent protein; the word gives no strength.

B1: calnexin (endogenous) (protein, UniProt P35564 21-591)
chain: HDGHDDDAIDIEDDLDDVIEEVEDSKSKSDASTPPSPKVTYKAPVPTGEVYFADSFDRGSLSGWILSKAKKDDTDDEIAKYDGKWEVDEMKETKLPGDKGLVLMSRAKHHAISAKLNKPFLFDTKPLIVQYEVNFQNGIECGGAYVKLLSKTAELSLDQFHDKTPYTIMFGPDKCGEDYKLHFIFRHKNPKTGVYEEKHAKRPDADLKTYFTDKKTHLYTLILNPDNSFEILVDQSVVNSGNLLNDMTPPVNPSREIEDPEDRKPEDWDERPKIADPDAVKPDDWDEDAPSKIPDEEATKPEGWLDDEPEYIPDPDAEKPEDWDEDMDGEWEAPQIANPKCESAPGCGVWQRPMIDNPNYKGKWKPPMIDNPNYQGIWKPRKIPNPDFFEDLEPFKMTPFSAIGLELWSMTSDIFFDNFIISGDRRVVDDWANDGWGLKKAADGAAEPGVVLQMLEAAEERPWLWVVYILTVALPVFLVILFCCSGKKQSNAMEYKKTDAPQPDVKDEEGKEEEKNKRDEEEEEEKLEEKQKSDAEEDGVTGSQDEEDSKPKAEEDEILNRSPRNRKPRRE
B1: the binding entry is on record as “binds”.
